From PubChem BioAssay AID540275 (National Center for Advancing Translational Sciences (NCATS), 2011)
The campaign covered roughly 320,000 compounds. About 620 (0.19%) were called active. Inconclusive means that the source gave no clear call. Such entries were picked first, then a sample of the others. No stated cut-off is given here; in the data, active means activation above about 80%; inconclusive means between about 30% and that limit; inactive means weaker than that.

Sequences of proteins named here, by UniProt entry; tags and fusion partners are left off.
UniProt Q8NER1, whole entry, looked up: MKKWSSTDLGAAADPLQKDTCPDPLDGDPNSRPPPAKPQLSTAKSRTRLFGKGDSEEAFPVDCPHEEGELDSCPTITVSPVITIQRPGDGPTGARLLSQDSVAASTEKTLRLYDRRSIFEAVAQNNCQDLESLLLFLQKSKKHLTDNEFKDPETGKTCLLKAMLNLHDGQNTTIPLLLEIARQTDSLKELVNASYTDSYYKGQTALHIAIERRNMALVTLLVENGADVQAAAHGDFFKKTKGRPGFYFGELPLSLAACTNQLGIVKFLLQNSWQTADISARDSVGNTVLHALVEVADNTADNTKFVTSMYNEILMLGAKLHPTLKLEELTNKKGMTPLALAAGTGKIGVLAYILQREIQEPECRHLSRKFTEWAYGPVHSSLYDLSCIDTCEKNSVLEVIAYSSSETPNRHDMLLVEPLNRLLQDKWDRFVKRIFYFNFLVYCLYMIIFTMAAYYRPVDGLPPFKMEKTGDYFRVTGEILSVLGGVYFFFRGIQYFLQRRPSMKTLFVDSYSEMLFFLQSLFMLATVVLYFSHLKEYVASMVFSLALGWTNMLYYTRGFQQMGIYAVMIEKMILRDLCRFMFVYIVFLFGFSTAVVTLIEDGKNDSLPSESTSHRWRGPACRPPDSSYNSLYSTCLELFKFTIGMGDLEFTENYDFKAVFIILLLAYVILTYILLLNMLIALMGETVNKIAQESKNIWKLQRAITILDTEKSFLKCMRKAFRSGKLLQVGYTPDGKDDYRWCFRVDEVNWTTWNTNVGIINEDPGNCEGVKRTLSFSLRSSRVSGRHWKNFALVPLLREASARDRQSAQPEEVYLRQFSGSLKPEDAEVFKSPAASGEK

target: Transient receptor potential cation channel subfamily V member 1 (Homo sapiens) (UniProt Q8NER1); test: HTS Assay for Compounds that Act as Agonists of the Vanilloid Receptor 1; conditions: TRPV1-expressing cells, Fluo-8 calcium influx, agonist mode; at 8.33 µM, active compounds read high; further: 0% is about no effect
How it was run: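 TRPV1-expressing cells were cultured overnight at 35.5C and loaded with Fluo-8 calcium dye for 40 to 90 min at room temperature. After a 10 s baseline, compound was added and calcium influx was read kinetically for 3 min (ex 480/em 520 nm).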

Structure (SMILES) | activation
Cc1ccc(NC(=O)c2ccc(F)cc2)cc1S(=O)(=O)N1CCCCCC1 | inconclusive: 64.2%
CC(=O)c1c(O)ccc2c(-c3ccccc3)cc(=O)oc12 | inconclusive: 35%
COc1cccc(CNn2cn[nH]c2=S)c1OCc1ccccc1 | inconclusive: 30.3%
CCOC(=O)c1c(C2COc3ccccc3O2)csc1NC(=O)c1ccccc1 (centres undefined) | inactive: -0.169%
CCCCCC(=O)Nc1ccccc1N1CCN(c2ccccc2)CC1 | inconclusive: 31.7%
O=C(NCCOc1ccccc1F)Nc1ccc(Br)cc1 | inconclusive: 50.9%
Cc1ccc(SCCN2CCN(CCc3ccccc3)CCC2=O)cc1 | inconclusive: 33.3%
COC(=O)c1sccc1NC(=O)Nc1ccccc1F | inconclusive: 40.9%
CC[C@@H](C)[C@H](NC(=O)OC(C)(C)C)c1nnc(S(=O)(=O)Cc2cc(C)ccc2C)o1 | inconclusive: 37.6%
Nc1c(-c2cccc(Cl)c2)cnn1-c1ccccc1 | inactive: 23.5%
CCC(=O)NCCc1nc2ccccc2n1Cc1ccc(C)cc1 | inconclusive: 43.2%
CN(C)CCCN(C(=O)COc1ccccc1)c1nc2c(F)cccc2s1 | inconclusive: 40.7%
CC(C)(C)c1ccc(OCCCN2CCCC2)cc1 | inactive: -3.55%
CCCCC1CCC(C(=O)NC2CCS(=O)(=O)C2)CC1 (centres undefined) | inconclusive: 60.6%
Cc1ccnc(N2CCC(C(=O)NCc3ccc4c(c3)OCO4)CC2)n1 | inactive: 1%
O=C(Nc1ccccc1C(=O)Nc1ccccn1)c1ccccc1F | inactive: 28.3%
C=CCN1c2ccccc2[C@]23C[C@@H](C(=O)OC)N(C(=O)c4cc(C)oc4C)C2=NC(C(=O)OC)=C(C(=O)OC)[C@H]13 | inconclusive: 46.8%
Cc1ccc(C(=O)N2NC(c3ccccc3F)C3C(=O)N(c4cccc(C)c4)C(=O)C32)cc1 (centres undefined) | inconclusive: 54.5%
COc1ccc(OC)c(C(=O)COC(=O)C(CCSC)NC(=O)COc2ccccc2)c1 (centres undefined) | inactive: 8.8%
COc1ccccc1N1CCN(C(=O)c2ccc3[nH]c(C)c(C)c3c2)CC1 | inactive: 9.11%
COC(=O)c1ccc(NC(=O)c2ccc3c(c2)C(=O)N(Cc2cccnc2)C3=O)cc1 | inactive: -2.13%
CC(=O)c1cccc(NC(=O)C2COc3ccccc3O2)c1 (centres undefined) | inconclusive: 34.4%
COc1ccccc1NC(=O)C(C(C)C)N1C(=O)c2ccccc2C1=O (centres undefined) | inconclusive: 43.5%

Structure (SMILES) | activation
CCOC(=O)C(=CNc1ccccc1Cl)C(=O)OCC | inconclusive: 38.8%
CCCn1c(=O)c(C(=O)OCC)c(O)c2cc(Br)ccc21 | inactive: 4.18%
Cc1cc2c(NC3CCCCC3)ncnc2s1 | inconclusive: 43%
O=C(Cc1ccc(Br)cc1)N1CCN(c2ccccc2)CC1 | inconclusive: 40.9%
O=C(Nc1ccc(Oc2cccc(C(F)(F)F)c2)nc1)c1ccccc1 | inconclusive: 79.9%
O=C(/C=C/c1ccccc1F)c1cccc([N+](=O)[O-])c1 | inconclusive: 31.3%
CCOC(=O)NC(=O)CSc1nc2ccc(C)cc2[nH]1 | inactive: -0.545%
O=C(OC1C2CCC1C1CN(CCc3ccccc3)CC12)c1ccccc1 (centres undefined) | inconclusive: 35.8%
CCCc1ccc2oc(C(=O)N3CCC[C@H]3CO)c(C)c2c1 | inconclusive: 55.8%
CC(=O)c1cc(-c2ccc(F)cc2)n(CCC(=O)NC(C)(C)C)c1C | inconclusive: 36.7%
CCCCc1nc(NCCNC(=O)c2ccccc2)c(C#N)c2c1CSC(C)(C)C2 | inconclusive: 44.2%
O=C(/C=C\c1cn(-c2ccccc2)nc1-c1ccc2c(c1)OCCO2)N1CCOCC1 | active: 115%
CCCN(CC#CC(O)(c1ccccc1)c1cccnc1)CCC (centres undefined) | inconclusive: 34.1%
COc1ccc(-c2oc3cccnc3c2C#CC2(O)CCCCC2)cc1 | inconclusive: 30.8%
FC(F)(F)c1cc(-c2ccco2)nc(-n2nnc3ccccc32)n1 | inactive: 3.76%
Cc1cccc(N2CC(C(=O)OCC(=O)c3ccc(OC(=O)c4cccs4)cc3)CC2=O)c1C (centres undefined) | inactive: -2.6%
CC(C)C(C(=O)N1CCN(C(=O)OC(C)(C)C)CC1)n1cc(-c2cn([C@@H](C)C(=O)N3CCN(C(=O)OC(C)(C)C)CC3)nn2)nn1 (some centres undefined) | inactive: -6.19%
CCc1cc2cccc(C)c2nc1SCC(=O)Nc1cc(C)on1 | inactive: 11.5%
Cc1nnc(SCC(=O)N2CCN(C(=O)c3ccco3)CC2)n1-c1ccccc1 | inactive: 1.78%
Cc1cccc(-n2c(-c3csc(C)c3C)n[nH]c2=S)c1 | inactive: 4.5%
O=c1cc(N2CCCCCC2)[nH]c(=O)n1-c1ccc(Cl)cc1 | inconclusive: 35.4%
N#CC1=C(N)Oc2cc(N)ccc2C1c1cccnc1 (centres undefined) | inactive: -2.92%
CCOc1ccc(CCN2C(=O)C(=O)N([C@H](CCCN(C)Cc3ccccc3)CNCc3ccccc3)C[C@@H]2C(C)C)cc1 | inactive: -5.79%

Rewritten comma-delimited: 4 of the compounds above
Structure (SMILES),activation
Nc1c(-c2cccc(Cl)c2)cnn1-c1ccccc1,inactive: 23.5%
O=C(OC1C2CCC1C1CN(CCc3ccccc3)CC12)c1ccccc1 (centres undefined),inconclusive: 35.8%
O=c1cc(N2CCCCCC2)[nH]c(=O)n1-c1ccc(Cl)cc1,inconclusive: 35.4%
CCOc1ccc(CCN2C(=O)C(=O)N([C@H](CCCN(C)Cc3ccccc3)CNCc3ccccc3)C[C@@H]2C(C)C)cc1,inactive: -5.79%

The results go on:

Structure (SMILES) | activation
Cc1cc(Cl)c2oc(C(=O)NC(C)c3ccncn3)c(C)c2c1 (centres undefined) | inconclusive: 30.1%
Cc1ccc(NC2=C/C(=N/S(=O)(=O)c3cccs3)c3ccccc3C2=O)cc1C | inactive: 4.59%
CCOc1ccc(C(C)C)cc1S(=O)(=O)n1ccnc1C | inconclusive: 39.5%
Cn1c(=O)c2c(nc(CN3CCN(Cc4ccccc4)CC3)n2Cc2ccc(Cl)cc2)n(C)c1=O | inactive: 2.03%
Cc1cccc(-n2ccnc2SCC(=O)Nc2ccc3c(c2)OCCO3)c1 | inconclusive: 36.2%
O=C(/C=C/c1c(F)cccc1Cl)Nc1cccnc1 | inconclusive: 48.8%
Cc1ccc(S(=O)(=O)CC(=O)Nc2ccc(Cl)cn2)cc1 | inconclusive: 67.7%
O=C1CCN2C=Nc3cccc4ccc1c2c34 | inconclusive: 63.9%
Cc1cc(-c2ccc(S(=O)(=O)N3CCN(c4cccc(C)c4C)CC3)s2)on1 | inconclusive: 30.8%
Cc1cnc(NC(=O)c2ccc3ncsc3c2)s1 | inconclusive: 53.2%
O=C(NC1CC1)c1ccc(-n2cccc2)cc1 | inconclusive: 51.5%
Cc1ccc(CSCC(=O)Nc2ccc(N3CCOCC3)cc2N2CCOCC2)cc1 | inactive: -2.07%
CC(Oc1ccc(Cl)cc1Cl)C(=O)NNC(=O)C(=O)N1CCCCC1 (centres undefined) | inactive: 1.35%
CCCOc1ccc(CSCCNC(=S)Nc2ccccc2)cc1 | inconclusive: 53.2%
Cc1ccc(CNC(=O)c2ccc(N3CCC4(CC3)CC(c3cccc(Br)c3)=NO4)c([N+](=O)[O-])c2)cc1 | inactive: 5.01%
COCCCNCCCCOc1ccc(Br)cc1C | inactive: 4.55%
COc1ccc(CNC(=O)c2csc(Cc3ccccc3)n2)cc1 | inconclusive: 39%
Cc1ccc(S(=O)(=O)/C(C#N)=C/c2c(N3CCN(C)CC3)nc3c(C)cccn3c2=O)cc1 | inconclusive: 31.1%
COc1ccc(CCNC(=O)C2(C)CCC(=O)N2Cc2ccc(F)cc2Cl)cc1OC (centres undefined) | inactive: 0.762%
COC(=O)c1cc(Br)c(=O)n(CCN2CCCC2)c1 | inactive: 1.51%
O=C(NCc1ccccc1)c1cnc(Cl)c(Cl)c1 | inconclusive: 33.7%
Cc1ccccc1OCc1nc(-c2ccc(NC(=O)c3ccc4c(c3)OCO4)cc2)no1 | inconclusive: 30.5%
CCc1ccccc1NC(=O)CNC(=O)c1cccc(S(=O)(=O)N2CCN(Cc3ccccc3)CC2)c1 | inactive: 8.29%

Structure (SMILES) | activation
O=C(COC(=O)C1CCCN1C(=O)C12CC3CC(CC(C3)C1)C2)c1ccc(Br)cc1 (centres undefined) | inconclusive: 33.4%
N#Cc1cnc(SCCc2ccccc2)nc1N | inconclusive: 31.5%
Cc1ccc(NC(=S)NC(=O)c2c(-c3ccccc3Cl)noc2C)cc1 | inactive: 6.2%
N#Cc1ccc(C(=O)NCC2CCCCC2)cc1 | inconclusive: 32%
Cn1c(CC(=O)Nc2ccc(F)cc2)c(Sc2ccccc2)c2ccccc21 | inconclusive: 33.5%
Cn1c(C(=O)NCc2ccco2)cc2c(=O)[nH]c3ccccc3c21 | inactive: 1.02%
Cc1ccc(CNc2nc(-c3cccnc3)nc3ccccc23)cc1 | inconclusive: 41%
COc1ccc(C2=NN(c3ccc(C(=O)O)cc3)C(c3ccc(OC)c(OC)c3)C2)cc1 (centres undefined) | inactive: 1.5%
O=C(c1cccs1)N1CC=C(c2ccccc2)CC1 | inconclusive: 59.3%
CC(C)N1C(=O)S/C(=C/c2ccc(Sc3nc4ccccc4[nH]3)o2)C1=O | inconclusive: 57.9%
COc1cc(/C=N/NC(=O)CCN2CCN(C(c3ccccc3)c3ccccc3)CC2)ccc1O | inconclusive: 40.1%
O=c1[nH]nc(Cc2ncc(C(F)(F)F)cc2Cl)c2ccccc12 | inactive: 0.0823%
COc1ccc(/C=C2/SC(=O)N(CCNC(=O)C3COc4ccccc4O3)C2=O)cc1 (centres undefined) | inactive: -0.703%
OCC1CCCN(C(=S)NCCc2ccccc2)C1 (centres undefined) | inconclusive: 50%
Cc1ccc(CCNC(=O)C2CC(c3ccc(C(F)(F)F)cc3)=NO2)cc1 (centres undefined) | inconclusive: 34.9%
CCc1cccc(OCC(=O)Nc2ccc(C)c(S(=O)(=O)N3CCCCCC3)c2)c1 | inconclusive: 39.6%
Cc1cccc(CSCCNC(=O)c2ccc(CN3CCOCC3)cc2)c1 | inconclusive: 39.9%
COP(=O)(OC)c1nc(-c2cccc3ccccc23)oc1N1CCCCC1 | inconclusive: 33.7%
CCc1ccccc1NC(=O)c1ccc2c(c1)CCN2S(C)(=O)=O | inconclusive: 35.5%
CC(=O)Nc1ccc(NC(=O)c2oc3cc(C)c(C)cc3c2C)cc1 | inconclusive: 67.5%
